Laboratory results as given in the supplement of paper PMC7877785.
± gives the uncertainty stated by the source. Many of these values have a large error.

Assay: self-splicing fitness, log relative to wild type (ln ratio); higher = more splicing; Tetrahymena group I intron in knt gene, E. coli kanamycin selection, DiMSum; sequences stand for … in CUCUCU…GGAGGGAAAAGUUAUCAGGCAUGCACCUGGUAGCUAGUCUUUAAACCAAUAGAUUGCAUCGGUUUAAAAGGCAAGACCGUCAAAUUGCGGGAAAGGGGUCAACAGCCGUUCAGUACCAAGUCUCAGGGGAAACUUUGAGAUGGCCUUGCAAAGGGUAUGGUAAUAAGCUGACGGACAUGGUCCUAACCACGCAGCCAAGUCCUAAGUCAACAGAUCUUCUGUUGAUAUGGAUGCAGUUCACAGACUAAAUGUCGGUCGGGGAAGAUGUAUUCUUCUCAUAAGAUAUAGUCGGACCUCUCCUUAAUGGGAGCUAGCGGAUGAAGUGAUGCAACACUGGAGCCGCUGGGAACUAAUUUGUAUGCGAAAGUAUAUUGAUUAGUUUUGGAGUACUCGUGGUCG
In short: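 Six replicate transformations of E. coli BL21(DE3) with a pET-22b(+) library were grown overnight at 37°C or 30°C. The library randomised all eight P1ex-region intron nucleotides, the intron lying in the knt kanamycin-resistance gene, and plates were LB agar with or without 25 μg/mL kanamycin plus 100 μg/mL carbenicillin, 50 μM IPTG and 0.2% rhamnose. Pooled colonies were amplicon-sequenced on an Illumina HiSeq 2500, and fitness is the DiMSum error-weighted combination of wild-type-normalised replicate fold changes, kanamycin versus none.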

GCGGAGCAAUAUUACGGAAA
self-splicing fitness (ln) (30 °C): -2.44 ± 0.78 | self-splicing fitness (ln) (37 °C): -1.54 ± 0.46

AGGAAGCAAUAUUACGCUAG
self-splicing fitness (ln) (37 °C): -1.23 ± 0.55

CGCGAGCAAUAUUACGAUCC
self-splicing fitness (ln) (37 °C): -1.51 ± 0.54

CAUAAGCAAUAUUACGGAUC
self-splicing fitness (ln) (30 °C): -4.38 ± 0.59

GUAAAGCAAUAUUACGCAAC
self-splicing fitness (ln) (30 °C): -1.85 ± 0.65

CUCCAGCAAUAUUACGCCGA
self-splicing fitness (ln) (37 °C): -2.42 ± 0.63

ACUGAGCAAUAUUACGCAGC
self-splicing fitness (ln) (30 °C): -3.43 ± 0.73

UCCGAGCAAUAUUACGAGCC
self-splicing fitness (ln) (30 °C): -2.84 ± 0.55

UCUUAGCAAUAUUACGUCGC
self-splicing fitness (ln) (30 °C): -2.56 ± 0.77 | self-splicing fitness (ln) (37 °C): -2.67 ± 1.1

AGGAAGCAAUAUUACGAGAC
self-splicing fitness (ln) (30 °C): -2.25 ± 1.1 | self-splicing fitness (ln) (37 °C): -1.54 ± 0.71

UCUUAGCAAUAUUACGGAAA
self-splicing fitness (ln) (30 °C): -0.692 ± 0.56 | self-splicing fitness (ln) (37 °C): -2.19 ± 0.78

GGGUAGCAAUAUUACGCUGC
self-splicing fitness (ln) (30 °C): -4.21 ± 1 | self-splicing fitness (ln) (37 °C): -2.71 ± 0.76

UCCUAGCAAUAUUACGAAAA
self-splicing fitness (ln) (37 °C): -2.45 ± 0.62

UACGAGCAAUAUUACGAUGC
self-splicing fitness (ln) (30 °C): -4.09 ± 0.59

GUGGAGCAAUAUUACGCGCG
self-splicing fitness (ln) (30 °C): -1.79 ± 0.25 | self-splicing fitness (ln) (37 °C): -2.11 ± 0.31

CGAUAGCAAUAUUACGUAAG
self-splicing fitness (ln) (30 °C): -0.163 ± 0.066 | self-splicing fitness (ln) (37 °C): 0.259 ± 0.082

AAGGAGCAAUAUUACGACCA
self-splicing fitness (ln) (30 °C): -4.78 ± 1

GUGUAGCAAUAUUACGCGCA
self-splicing fitness (ln) (30 °C): -0.244 ± 0.88 | self-splicing fitness (ln) (37 °C): -0.33 ± 0.68

UGGGAGCAAUAUUACGAGAA
self-splicing fitness (ln) (37 °C): -1.8 ± 0.81

CAGGAGCAAUAUUACGCGGA
self-splicing fitness (ln) (37 °C): -4.43 ± 0.59

CCUUAGCAAUAUUACGAGAC
self-splicing fitness (ln) (30 °C): -5.39 ± 0.58

UGACAGCAAUAUUACGAUCG
self-splicing fitness (ln) (30 °C): 0.0362 ± 0.077 | self-splicing fitness (ln) (37 °C): 0.761 ± 0.1

GGUAAGCAAUAUUACGAGGA
self-splicing fitness (ln) (30 °C): -3.59 ± 0.54

GUAGAGCAAUAUUACGGGCC
self-splicing fitness (ln) (30 °C): -4.21 ± 0.73 | self-splicing fitness (ln) (37 °C): -0.695 ± 0.52

ACCGAGCAAUAUUACGGUAA
self-splicing fitness (ln) (30 °C): -2.6 ± 0.18 | self-splicing fitness (ln) (37 °C): -1.7 ± 0.12

CGUCAGCAAUAUUACGUAUA
self-splicing fitness (ln) (30 °C): -4.39 ± 0.51

UCGAAGCAAUAUUACGCUCC
self-splicing fitness (ln) (37 °C): -1.84 ± 1.1

AUAGAGCAAUAUUACGUUAU
self-splicing fitness (ln) (30 °C): -0.975 ± 0.089 | self-splicing fitness (ln) (37 °C): -0.177 ± 0.11

UAAGAGCAAUAUUACGAAAA
self-splicing fitness (ln) (30 °C): -2.39 ± 0.64

CCCUAGCAAUAUUACGUUUA
self-splicing fitness (ln) (30 °C): -2.91 ± 0.14 | self-splicing fitness (ln) (37 °C): -2.16 ± 0.16

AGAGAGCAAUAUUACGAGCG
self-splicing fitness (ln) (37 °C): -3 ± 1

AUGUAGCAAUAUUACGGGAC
self-splicing fitness (ln) (30 °C): -2.87 ± 0.57 | self-splicing fitness (ln) (37 °C): -2.49 ± 0.55

UACGAGCAAUAUUACGCGCC
self-splicing fitness (ln) (37 °C): -2.85 ± 0.53

AUACAGCAAUAUUACGCUAC
self-splicing fitness (ln) (37 °C): -3.7 ± 0.51

UCCAAGCAAUAUUACGUAGC
self-splicing fitness (ln) (30 °C): -3.38 ± 0.14 | self-splicing fitness (ln) (37 °C): -1.38 ± 0.11

UUAUAGCAAUAUUACGAGUC
self-splicing fitness (ln) (30 °C): -2.93 ± 1.1 | self-splicing fitness (ln) (37 °C): -3.11 ± 0.61

UGUAAGCAAUAUUACGAGAU
self-splicing fitness (ln) (30 °C): -3.71 ± 0.3 | self-splicing fitness (ln) (37 °C): -3.14 ± 0.37

GCCGAGCAAUAUUACGAACG
self-splicing fitness (ln) (37 °C): -1.28 ± 0.54

GGGGAGCAAUAUUACGUGCC
self-splicing fitness (ln) (30 °C): -4.09 ± 1 | self-splicing fitness (ln) (37 °C): 0.321 ± 1.2

GUUAAGCAAUAUUACGACCC
self-splicing fitness (ln) (30 °C): -1.38 ± 0.66

CAGGAGCAAUAUUACGCACC
self-splicing fitness (ln) (30 °C): -0.828 ± 0.58 | self-splicing fitness (ln) (37 °C): -1.76 ± 0.85

CAGAAGCAAUAUUACGUCAU
self-splicing fitness (ln) (30 °C): -5.39 ± 0.5 | self-splicing fitness (ln) (37 °C): -2.9 ± 0.25

GGCGAGCAAUAUUACGCUUG
self-splicing fitness (ln) (30 °C): -4.49 ± 1

CACCAGCAAUAUUACGAUCC
self-splicing fitness (ln) (37 °C): -1.23 ± 0.6

UAAUAGCAAUAUUACGAGAG
self-splicing fitness (ln) (30 °C): -3.51 ± 0.52

CGUUAGCAAUAUUACGGCAC
self-splicing fitness (ln) (30 °C): -3.81 ± 1 | self-splicing fitness (ln) (37 °C): -1.36 ± 0.84

CUAUAGCAAUAUUACGCCCU
self-splicing fitness (ln) (30 °C): -4.16 ± 0.73 | self-splicing fitness (ln) (37 °C): -2.3 ± 0.76

CGGAAGCAAUAUUACGCAAC
self-splicing fitness (ln) (37 °C): -2.63 ± 0.61

UUAUAGCAAUAUUACGUCAC
self-splicing fitness (ln) (30 °C): -2.79 ± 0.68 | self-splicing fitness (ln) (37 °C): -2.08 ± 1.1

CACGAGCAAUAUUACGCAUC
self-splicing fitness (ln) (37 °C): -2.67 ± 1.1

CUUAAGCAAUAUUACGGUUA
self-splicing fitness (ln) (30 °C): -4.03 ± 1

UGCCAGCAAUAUUACGCAGC
self-splicing fitness (ln) (30 °C): -3.82 ± 1

GUCGAGCAAUAUUACGCUGG
self-splicing fitness (ln) (30 °C): -5.22 ± 0.72 | self-splicing fitness (ln) (37 °C): -3.65 ± 0.73

GUGUAGCAAUAUUACGAGUA
self-splicing fitness (ln) (30 °C): -3.87 ± 0.52

CAGAAGCAAUAUUACGACCU
self-splicing fitness (ln) (30 °C): -2.86 ± 0.4 | self-splicing fitness (ln) (37 °C): 0.0264 ± 0.23

AUGAAGCAAUAUUACGUGCA
self-splicing fitness (ln) (30 °C): -0.0826 ± 0.093 | self-splicing fitness (ln) (37 °C): 0.364 ± 0.11

GAGGAGCAAUAUUACGUUGC
self-splicing fitness (ln) (30 °C): -4.07 ± 0.53 | self-splicing fitness (ln) (37 °C): -2.11 ± 0.64

CCUGAGCAAUAUUACGAUAA
self-splicing fitness (ln) (30 °C): -3.21 ± 0.74 | self-splicing fitness (ln) (37 °C): -2.57 ± 1.1
